This is one part of the list.
Compound: COc1ccc(Cn2ccc3ccc(C(=O)NO)cc32)cc1
Assay: dose-dependent thermal stabilisation call (2D-TPP, DLPTP, 10% FDR) (binary (1 = stabilised)); higher = stabilised by the compound
Conditions: system: HL-60 intact cells; concentration range 0.04-10 µM

Protein sequences, listed by entry. Tags and fused reporters are not part of them. Lines headed by an entry give the natural chain unless they say otherwise; changes in a name come on top.
UniProt P27540, whole entry: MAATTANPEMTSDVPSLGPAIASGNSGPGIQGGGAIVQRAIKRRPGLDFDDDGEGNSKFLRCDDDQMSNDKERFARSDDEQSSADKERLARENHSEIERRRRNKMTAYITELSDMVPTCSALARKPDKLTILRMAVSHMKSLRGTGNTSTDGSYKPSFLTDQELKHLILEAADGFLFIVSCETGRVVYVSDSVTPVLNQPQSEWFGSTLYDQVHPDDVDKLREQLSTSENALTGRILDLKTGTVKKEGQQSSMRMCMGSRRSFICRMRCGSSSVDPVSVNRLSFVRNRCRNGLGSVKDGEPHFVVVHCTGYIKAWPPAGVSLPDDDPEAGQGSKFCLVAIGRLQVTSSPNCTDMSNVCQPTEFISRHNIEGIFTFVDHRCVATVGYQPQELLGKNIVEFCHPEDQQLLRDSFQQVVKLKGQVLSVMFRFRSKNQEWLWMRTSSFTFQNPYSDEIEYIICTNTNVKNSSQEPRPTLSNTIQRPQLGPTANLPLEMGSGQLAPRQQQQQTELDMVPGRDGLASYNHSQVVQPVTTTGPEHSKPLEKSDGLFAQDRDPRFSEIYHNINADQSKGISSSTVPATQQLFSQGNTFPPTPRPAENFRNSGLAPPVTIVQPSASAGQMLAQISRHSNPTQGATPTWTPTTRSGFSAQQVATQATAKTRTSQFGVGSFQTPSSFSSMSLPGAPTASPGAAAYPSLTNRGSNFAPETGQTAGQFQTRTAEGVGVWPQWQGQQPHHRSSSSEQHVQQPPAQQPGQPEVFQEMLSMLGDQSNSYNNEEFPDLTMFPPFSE
UniProt Q9UL15: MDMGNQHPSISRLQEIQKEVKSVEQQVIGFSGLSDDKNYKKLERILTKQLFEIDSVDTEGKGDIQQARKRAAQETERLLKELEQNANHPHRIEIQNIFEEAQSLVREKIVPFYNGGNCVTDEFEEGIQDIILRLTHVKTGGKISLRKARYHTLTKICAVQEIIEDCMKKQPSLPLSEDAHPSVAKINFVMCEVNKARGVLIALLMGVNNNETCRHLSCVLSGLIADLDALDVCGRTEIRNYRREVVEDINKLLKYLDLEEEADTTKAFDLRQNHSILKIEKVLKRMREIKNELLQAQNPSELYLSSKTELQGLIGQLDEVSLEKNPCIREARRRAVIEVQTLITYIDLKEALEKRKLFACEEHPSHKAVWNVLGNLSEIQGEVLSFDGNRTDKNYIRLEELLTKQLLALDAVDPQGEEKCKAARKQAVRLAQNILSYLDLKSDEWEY
UniProt P80723: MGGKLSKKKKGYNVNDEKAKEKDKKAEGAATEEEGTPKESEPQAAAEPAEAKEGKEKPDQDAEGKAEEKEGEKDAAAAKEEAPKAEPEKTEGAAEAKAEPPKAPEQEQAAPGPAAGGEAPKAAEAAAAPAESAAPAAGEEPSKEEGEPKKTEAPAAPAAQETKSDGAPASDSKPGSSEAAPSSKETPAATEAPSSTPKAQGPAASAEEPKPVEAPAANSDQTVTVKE
UniProt Q6NXE6: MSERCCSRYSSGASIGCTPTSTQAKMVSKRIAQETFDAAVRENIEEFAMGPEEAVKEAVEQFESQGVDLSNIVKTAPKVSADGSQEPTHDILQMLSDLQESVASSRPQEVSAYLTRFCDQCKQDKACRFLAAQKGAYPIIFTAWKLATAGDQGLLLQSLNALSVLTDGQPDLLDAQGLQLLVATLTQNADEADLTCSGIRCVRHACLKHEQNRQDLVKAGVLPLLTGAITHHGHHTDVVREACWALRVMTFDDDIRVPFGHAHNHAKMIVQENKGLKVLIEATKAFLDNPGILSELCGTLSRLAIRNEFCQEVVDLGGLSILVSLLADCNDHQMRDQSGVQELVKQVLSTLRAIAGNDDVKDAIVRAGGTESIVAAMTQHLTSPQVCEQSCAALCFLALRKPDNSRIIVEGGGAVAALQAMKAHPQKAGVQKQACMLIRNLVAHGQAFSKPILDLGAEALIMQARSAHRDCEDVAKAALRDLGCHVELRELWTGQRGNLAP
UniProt P43251: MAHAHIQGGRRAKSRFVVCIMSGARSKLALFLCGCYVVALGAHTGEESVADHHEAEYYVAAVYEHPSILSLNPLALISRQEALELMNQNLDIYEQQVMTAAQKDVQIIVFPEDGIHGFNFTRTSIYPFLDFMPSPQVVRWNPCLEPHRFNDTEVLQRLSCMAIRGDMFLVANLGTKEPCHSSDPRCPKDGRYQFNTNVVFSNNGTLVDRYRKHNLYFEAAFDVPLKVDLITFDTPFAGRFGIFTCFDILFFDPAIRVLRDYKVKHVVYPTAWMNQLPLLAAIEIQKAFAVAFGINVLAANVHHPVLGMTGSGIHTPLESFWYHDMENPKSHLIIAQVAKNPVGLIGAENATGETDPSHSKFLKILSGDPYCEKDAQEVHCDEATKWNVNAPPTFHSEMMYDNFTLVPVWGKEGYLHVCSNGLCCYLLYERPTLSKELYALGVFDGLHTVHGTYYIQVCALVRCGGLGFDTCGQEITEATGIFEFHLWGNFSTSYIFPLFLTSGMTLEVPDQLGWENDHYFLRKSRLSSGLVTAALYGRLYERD
UniProt P25705: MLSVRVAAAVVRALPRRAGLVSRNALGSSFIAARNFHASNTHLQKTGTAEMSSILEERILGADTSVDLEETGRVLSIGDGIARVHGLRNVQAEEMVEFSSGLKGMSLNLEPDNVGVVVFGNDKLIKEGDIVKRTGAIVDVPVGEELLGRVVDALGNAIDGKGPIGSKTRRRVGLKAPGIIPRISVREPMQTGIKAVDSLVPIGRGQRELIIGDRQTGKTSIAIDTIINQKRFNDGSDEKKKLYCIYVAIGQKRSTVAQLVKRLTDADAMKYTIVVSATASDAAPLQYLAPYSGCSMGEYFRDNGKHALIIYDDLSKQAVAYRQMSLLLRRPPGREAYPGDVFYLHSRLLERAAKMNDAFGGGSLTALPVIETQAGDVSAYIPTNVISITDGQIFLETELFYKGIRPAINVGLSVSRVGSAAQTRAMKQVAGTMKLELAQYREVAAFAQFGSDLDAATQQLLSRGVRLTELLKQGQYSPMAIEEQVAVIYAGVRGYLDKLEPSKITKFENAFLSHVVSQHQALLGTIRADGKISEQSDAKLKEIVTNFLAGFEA
UniProt Q9H0C5: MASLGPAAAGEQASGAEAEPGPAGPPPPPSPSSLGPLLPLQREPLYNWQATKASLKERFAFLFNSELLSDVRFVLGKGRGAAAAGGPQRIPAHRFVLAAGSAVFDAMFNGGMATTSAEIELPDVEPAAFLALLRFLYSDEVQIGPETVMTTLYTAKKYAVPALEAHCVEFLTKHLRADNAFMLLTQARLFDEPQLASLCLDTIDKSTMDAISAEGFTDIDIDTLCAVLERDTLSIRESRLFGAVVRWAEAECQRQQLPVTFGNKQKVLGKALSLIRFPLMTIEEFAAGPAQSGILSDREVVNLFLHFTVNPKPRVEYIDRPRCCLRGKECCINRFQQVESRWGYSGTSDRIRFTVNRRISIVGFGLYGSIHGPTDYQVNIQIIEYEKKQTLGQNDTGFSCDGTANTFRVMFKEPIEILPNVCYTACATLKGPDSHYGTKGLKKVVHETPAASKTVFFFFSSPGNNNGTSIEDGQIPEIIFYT
UniProt Q9Y520: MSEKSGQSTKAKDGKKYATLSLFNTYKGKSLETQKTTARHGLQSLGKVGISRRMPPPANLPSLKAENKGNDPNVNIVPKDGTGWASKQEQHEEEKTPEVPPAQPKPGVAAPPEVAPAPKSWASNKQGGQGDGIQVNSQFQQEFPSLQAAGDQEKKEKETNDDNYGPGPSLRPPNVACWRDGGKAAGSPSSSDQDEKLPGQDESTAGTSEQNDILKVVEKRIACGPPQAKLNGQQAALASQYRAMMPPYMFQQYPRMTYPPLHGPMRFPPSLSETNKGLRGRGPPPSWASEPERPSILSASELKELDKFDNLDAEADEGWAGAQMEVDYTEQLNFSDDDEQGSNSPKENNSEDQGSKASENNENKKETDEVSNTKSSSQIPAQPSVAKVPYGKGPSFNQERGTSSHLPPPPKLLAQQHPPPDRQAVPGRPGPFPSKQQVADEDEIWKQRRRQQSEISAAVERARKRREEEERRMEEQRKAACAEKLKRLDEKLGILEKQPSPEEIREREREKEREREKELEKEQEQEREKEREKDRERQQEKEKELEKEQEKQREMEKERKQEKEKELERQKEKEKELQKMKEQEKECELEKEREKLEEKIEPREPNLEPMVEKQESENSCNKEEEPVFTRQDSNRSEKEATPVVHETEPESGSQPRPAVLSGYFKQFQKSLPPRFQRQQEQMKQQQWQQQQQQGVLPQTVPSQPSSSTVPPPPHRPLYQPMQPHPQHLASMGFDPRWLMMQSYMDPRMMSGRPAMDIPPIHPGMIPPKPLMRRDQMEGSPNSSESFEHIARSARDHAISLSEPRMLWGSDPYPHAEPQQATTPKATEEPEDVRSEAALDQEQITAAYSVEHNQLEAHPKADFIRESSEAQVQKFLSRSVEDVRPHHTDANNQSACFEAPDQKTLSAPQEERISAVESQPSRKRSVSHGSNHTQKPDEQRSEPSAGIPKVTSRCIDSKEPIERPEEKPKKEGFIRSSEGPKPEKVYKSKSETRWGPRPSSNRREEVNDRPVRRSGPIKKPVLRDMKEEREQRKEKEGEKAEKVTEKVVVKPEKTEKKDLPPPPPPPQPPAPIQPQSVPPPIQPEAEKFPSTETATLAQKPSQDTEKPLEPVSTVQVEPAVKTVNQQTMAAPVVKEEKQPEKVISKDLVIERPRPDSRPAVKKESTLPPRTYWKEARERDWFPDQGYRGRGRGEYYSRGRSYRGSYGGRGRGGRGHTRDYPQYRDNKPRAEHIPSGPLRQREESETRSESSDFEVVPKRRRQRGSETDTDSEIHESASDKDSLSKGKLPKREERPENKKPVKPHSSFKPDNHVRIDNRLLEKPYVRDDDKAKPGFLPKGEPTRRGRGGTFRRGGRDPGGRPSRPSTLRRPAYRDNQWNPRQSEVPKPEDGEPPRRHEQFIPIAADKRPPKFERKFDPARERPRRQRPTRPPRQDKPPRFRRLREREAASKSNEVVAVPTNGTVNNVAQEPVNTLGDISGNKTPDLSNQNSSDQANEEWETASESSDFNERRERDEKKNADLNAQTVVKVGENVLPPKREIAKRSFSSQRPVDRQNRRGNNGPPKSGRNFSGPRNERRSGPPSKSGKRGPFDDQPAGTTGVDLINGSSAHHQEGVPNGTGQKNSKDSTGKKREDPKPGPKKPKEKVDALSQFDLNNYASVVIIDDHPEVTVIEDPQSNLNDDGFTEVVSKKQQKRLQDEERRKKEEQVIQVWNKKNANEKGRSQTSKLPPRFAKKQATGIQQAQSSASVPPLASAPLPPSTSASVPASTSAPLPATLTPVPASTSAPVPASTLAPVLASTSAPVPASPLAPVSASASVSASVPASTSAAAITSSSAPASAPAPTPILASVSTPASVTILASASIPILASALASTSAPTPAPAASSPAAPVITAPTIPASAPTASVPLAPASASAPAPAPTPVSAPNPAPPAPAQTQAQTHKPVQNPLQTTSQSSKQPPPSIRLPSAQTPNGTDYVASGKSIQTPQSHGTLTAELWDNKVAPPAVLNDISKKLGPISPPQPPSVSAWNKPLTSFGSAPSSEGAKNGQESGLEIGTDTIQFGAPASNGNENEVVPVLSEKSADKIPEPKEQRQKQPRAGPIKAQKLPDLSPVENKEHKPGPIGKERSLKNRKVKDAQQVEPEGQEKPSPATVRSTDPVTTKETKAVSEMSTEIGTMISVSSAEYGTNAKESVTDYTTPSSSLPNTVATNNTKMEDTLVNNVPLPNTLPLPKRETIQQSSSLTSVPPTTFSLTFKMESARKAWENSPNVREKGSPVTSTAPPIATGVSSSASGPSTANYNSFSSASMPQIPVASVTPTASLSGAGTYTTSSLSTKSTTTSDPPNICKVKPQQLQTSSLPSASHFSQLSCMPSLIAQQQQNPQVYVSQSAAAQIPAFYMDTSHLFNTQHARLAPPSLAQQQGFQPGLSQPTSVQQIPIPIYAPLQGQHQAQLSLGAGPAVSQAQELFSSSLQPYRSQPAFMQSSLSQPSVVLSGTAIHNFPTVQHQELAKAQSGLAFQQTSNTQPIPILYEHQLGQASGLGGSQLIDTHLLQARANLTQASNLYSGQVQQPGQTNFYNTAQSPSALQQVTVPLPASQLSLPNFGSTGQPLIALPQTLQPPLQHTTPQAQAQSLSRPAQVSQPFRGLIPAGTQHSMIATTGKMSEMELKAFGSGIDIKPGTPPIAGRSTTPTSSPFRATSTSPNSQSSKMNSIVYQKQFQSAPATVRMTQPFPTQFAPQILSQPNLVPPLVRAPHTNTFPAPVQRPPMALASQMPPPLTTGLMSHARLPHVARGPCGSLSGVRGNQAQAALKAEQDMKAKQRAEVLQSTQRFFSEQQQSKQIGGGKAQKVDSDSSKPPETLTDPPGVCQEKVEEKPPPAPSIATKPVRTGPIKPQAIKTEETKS
UniProt O75947: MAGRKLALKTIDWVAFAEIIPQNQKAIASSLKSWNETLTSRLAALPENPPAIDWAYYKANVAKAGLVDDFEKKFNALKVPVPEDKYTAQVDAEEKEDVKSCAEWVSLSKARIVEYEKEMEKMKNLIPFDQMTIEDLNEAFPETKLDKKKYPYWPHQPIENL

Target | dose-dependent thermal stabilisation call
ATG2B (UniProt Q96BY7) | inactive: 0
B3GAT3 (UniProt O94766) | inactive: 0
ARNT (UniProt P27540) | inactive: 0
C11ORF73 (UniProt Q53FT3) | inactive: 0
ATF6B (UniProt Q99941) | inactive: 0
BAG5 (UniProt Q9UL15) | inactive: 0
BASP1 (UniProt P80723) | inactive: 0
UniProt B4E0S5_HUMAN | inactive: 0
C11ORF67 (UniProt Q9H7C9) | inactive: 0
UniProt B3GNT1 | inactive: 0
BIRC6 (UniProt Q9NR09) | inactive: 0
BRP44 (UniProt O95563) | inactive: 0
BIN2 (UniProt Q9UBW5) | inactive: 0
C10ORF119 (UniProt Q9BTE3) | inactive: 0
BAZ1B (UniProt Q9UIG0) | inactive: 0
BRAF (UniProt P15056) | inactive: 0
ARPC5L (UniProt Q9BPX5) | inactive: 0
BCKDHA (UniProt P12694) | inactive: 0
C10ORF88 (UniProt Q9H8K7) | inactive: 0

Target | dose-dependent thermal stabilisation call
ARMC6 (UniProt Q6NXE6) | inactive: 0
ATXN3 (UniProt P54252) | inactive: 0
BRD3 (UniProt Q15059) | inactive: 0
ATP11C (UniProt Q8NB49) | inactive: 0
AZI1 (UniProt Q9UPN4) | inactive: 0
BTD (UniProt P43251) | inactive: 0
ATP13A3 (UniProt Q9H7F0) | inactive: 0
C12ORF45 (UniProt Q8N5I9) | inactive: 0
ATP5A1 (UniProt P25705) | inactive: 0
ATP6V1A (UniProt P38606) | inactive: 0
BTBD1 (UniProt Q9H0C5) | inactive: 0
ARRDC1 (UniProt Q8N5I2) | inactive: 0
BAT2D1 (UniProt Q9Y520) | inactive: 0
ATP5H (UniProt O75947) | inactive: 0
BLM (UniProt P54132) | inactive: 0
ATIC (UniProt P31939) | inactive: 0
ATP6AP1 (UniProt Q15904) | inactive: 0
ATP5B (UniProt P06576) | inactive: 0

Some of the entries so far, in CSV form.
Target,dose-dependent thermal stabilisation call
BLM (UniProt P54132),inactive: 0
ATP6AP1 (UniProt Q15904),inactive: 0
